# Test results taken from patent US20240209061A1, “FUSION PROTEINS AND USES THEREOF” (Pfizer Inc., priority 2020, published 2024).
# Some of these results come from one statement about several compounds together.
# System: human primary T cells
# Test: Primary T cell and HCT116-CD64 co-stimulation assay (IL-2 release)
# Assay type: cell-based
row,Substance,enhanced T cell co-stimulation compared to WT CD80-Fc
1,CD80-D90K-Fc: variant CD80 ECD (D90K) fused to human IgG1 Fc,8-10 fold
2,CD80-K89D-Fc: variant CD80 ECD (K89D) fused to human IgG1 Fc,1.2-1.5 fold
3,"CD80-K89D-D90K-Fc: variant CD80 ECD (K89D, D90K) fused to human IgG1 Fc",8-10 fold
4,CD80-K89Q-Fc: variant CD80 ECD (K89Q) fused to human IgG1 Fc,1.2-1.5 fold
